Data taken from PMC10212944.

Chains of the proteins cited; added tags and fusions are not shown. Chains listed by the source or under a name are the forms on record and can include a tag or linker.
RPA S384D (Homo sapiens), one chain, as listed by the source S384D, chain 1 of 3: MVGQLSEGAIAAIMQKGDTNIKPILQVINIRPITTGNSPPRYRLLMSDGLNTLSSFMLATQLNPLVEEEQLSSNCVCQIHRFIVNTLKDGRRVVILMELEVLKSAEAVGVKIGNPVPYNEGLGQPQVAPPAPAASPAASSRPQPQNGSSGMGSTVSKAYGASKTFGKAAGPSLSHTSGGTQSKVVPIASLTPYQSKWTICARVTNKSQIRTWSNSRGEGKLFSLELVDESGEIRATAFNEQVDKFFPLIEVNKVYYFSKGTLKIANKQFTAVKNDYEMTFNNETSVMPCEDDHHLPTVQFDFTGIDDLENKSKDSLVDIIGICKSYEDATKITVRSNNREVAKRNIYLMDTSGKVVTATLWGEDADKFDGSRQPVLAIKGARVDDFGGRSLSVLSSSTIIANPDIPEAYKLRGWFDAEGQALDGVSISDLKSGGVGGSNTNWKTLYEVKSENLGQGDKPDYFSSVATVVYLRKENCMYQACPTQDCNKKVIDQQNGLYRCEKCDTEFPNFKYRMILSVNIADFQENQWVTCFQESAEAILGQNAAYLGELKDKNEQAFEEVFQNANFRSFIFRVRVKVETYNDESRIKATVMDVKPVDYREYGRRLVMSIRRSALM
RPA (wild type) (Homo sapiens), one chain, as listed by the source, chain 1 of 3: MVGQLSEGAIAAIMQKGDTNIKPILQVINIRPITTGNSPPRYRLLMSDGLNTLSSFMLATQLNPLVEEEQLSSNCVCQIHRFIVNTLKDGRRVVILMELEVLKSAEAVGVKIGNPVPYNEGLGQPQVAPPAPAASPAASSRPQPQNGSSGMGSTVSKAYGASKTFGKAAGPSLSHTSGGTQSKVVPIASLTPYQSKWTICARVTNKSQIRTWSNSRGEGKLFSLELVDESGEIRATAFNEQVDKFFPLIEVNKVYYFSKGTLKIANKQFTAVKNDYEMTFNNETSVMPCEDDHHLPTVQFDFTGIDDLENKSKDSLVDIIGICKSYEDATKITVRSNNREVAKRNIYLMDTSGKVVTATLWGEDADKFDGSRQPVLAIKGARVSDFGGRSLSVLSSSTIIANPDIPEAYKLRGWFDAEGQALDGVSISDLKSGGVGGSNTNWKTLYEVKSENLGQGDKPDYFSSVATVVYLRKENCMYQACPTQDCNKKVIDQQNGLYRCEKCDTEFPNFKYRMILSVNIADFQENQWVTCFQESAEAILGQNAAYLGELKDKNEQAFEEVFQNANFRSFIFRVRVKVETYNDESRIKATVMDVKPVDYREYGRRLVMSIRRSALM

Legend:
RPA S384D (Homo sapiens) [1] = experiment: HDX-MS; conditions: recombinant protein; single-stranded DNA
[2] = test system: RPA (wild type) (Homo sapiens); experiment: HDX-MS; conditions: recombinant protein; single-stranded DNA
RPA S384D (Homo sapiens) [3] = experiment: stopped-flow Trp fluorescence (koff/kon); conditions: kon 1.9e10 M-1 s-1, koff 65 s-1 as printed; Stopped flow: 30 mM HEPES pH 7.8, 100 mM KCl, 5 mM MgCl2, 6% glycerol, 1 mM b-ME, 25 C; recombinant protein; single-stranded DNA

## TTTTTTTTTTTTTTTTTTTTTTTTTTTTTTTTTTT [(dT)35]
RPA S384D (Homo sapiens) [1]
  binding result: binds
[2]
  binding result: binds
RPA S384D (Homo sapiens) [3]
  Kd: 3.4 nM

Construct, isoform or probe ends are uncertain for at least one entry. For part of these data: At least one verdict was read from the data and is not stated in words by the source.
